PubChem BioAssay AID2685 (National Center for Advancing Translational Sciences (NCATS), 2010)
Screen size: about 320,000 compounds; about 2,100 (0.66%) were called active. The inconclusive results got no clear call from the source; some entries with a clear call stand among them for comparison. The call rests on the fitted dose curve; in most records, active means well fitted inhibition curve with a large enough effect in the signal ratio, with a control signal flat (not every such curve was filed as active); inconclusive means small, poorly fitted or top-dose-only effect, or effect the other way, or a change in a side signal; inactive means flat fitted curve, though single readings scatter; the % refers to the signal ratio. Where the call is inconclusive, the potency comes from a doubtful curve fit. Where a SMILES comes first, the peptide text is derived from it. The star is where a group is joined. Boc = CC(C)(C)OC(=O)*

assay: qHTS Assay for Lipid Storage Modulators in Drosophila S3 Cells; details: BODIPY lipid droplet fluorescence, 18-24 h, cells fed with added oleic acid; lipid storage change, negative = inhibition: at 46.1 µM (top of the series) unless noted
How it was run: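 Drosophila S3 cells loaded with oleic acid (400 uM, as added) and compounds at several concentrations; lipid droplets imaged by 488-nm laser-scanning cytometry, 500–530 nm intensity and object ratio to cell channel. Percent activity normalized to 20 uM Triacsin C.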
On the % scale 0 is the no-effect control and ±100 the full control effect; potency means the concentration at half of the fitted maximal effect.

Row | Structure (SMILES) | lipid storage change, negative = inhibition | Potency
1 | Cc1ccc2c(c1)cc(CN(Cc1ccco1)C(=O)N1CCOCC1)c1nnnn12 | inconclusive: -27.9% | –
2 | CCOc1cc(-c2noc(CCC(=O)NC3CCCCC3)n2)ccc1OC | inconclusive: -12% | –
3 | COc1ccccc1COC(=O)CN1C(=O)NC2(CCCCC2C)C1=O (stereo not given) | inconclusive | –
4 | N#Cc1c(NC(=S)NC(=O)C2CCCC2)sc2c1CCCCC2 | inconclusive: -23.7% | –
5 | COc1ccccc1N1CCN(C(=O)c2cc(C)oc2C)CC1 | inactive: -0.501% | –
6 | CCCc1cc(=O)[nH]c(SCC(=O)c2ccc3c(c2)OCCO3)n1 | – | inconclusive: 18.4 µM [activator, single point]
7 | Cc1cccc(C)c1NC(=O)COC(=O)c1cc[n+]([O-])cc1 | – | inconclusive: 29.1 µM [activator, single point]
8 | Cc1nc2ccc(S(=O)(=O)NCC(=O)Nc3cccc(F)c3)cc2s1 | inconclusive: -12.5% | –
9 | COc1ccccc1NC(=S)N/N=C/c1ccc(O)cc1 | – | inconclusive: 18.4 µM [activator, partial curve]
10 | Cc1ccc(C2(c3ccccc3)NC(=O)N(CC(=O)NCc3ccccc3)C2=O)cc1C (stereo not given) | inconclusive: -13.8% | –
11 | N=c1c(C(=O)NC2CCCCC2)cc2c(=O)n3ccccc3nc2n1CC1CCCO1 (stereo not given) | inconclusive: 18.2% | –
12 | O=C(O)Cc1cn(Cc2cccc(Cl)c2)c2ccccc12 | inconclusive: 18.7% | –
13 | O=C(O)c1n[nH]c2c1CC(C1CCCCC1)CC2 (stereo not given) | inconclusive: -3.74% | –
14 | COc1ccc(CNC(=O)CN(C(=O)c2csnn2)c2ccccc2F)cc1 | inconclusive: 30.7% | –
15 | Cc1ccc(C(=O)NCc2ccco2)cc1Br | – | inconclusive: 0.013 µM [activator, full curve, poor fit]
16 | CN(C)S(=O)(=O)N1CCc2ccc(NC(=O)c3ccc(C(F)(F)F)cc3)cc2C1 | inconclusive: 0.439% | –
17 | OCC[C@@H]1C[C@@H](O)[C@H](O)[C@]2(Cc3ccccc3O2)O1 | inconclusive: 27.6% | –
18 | COc1ccccc1N(CC(O)CN1CCCCC1)S(=O)(=O)c1ccc(C)cc1 (stereo not given) | inconclusive: -100% | –
19 | CCOC(=O)c1c(NC(=O)COc2ccc3ccc(=O)oc3c2)sc(C(=O)N(C)C)c1C | inconclusive: -3.51% | –
20 | CCCOCC(O)COc1ccccc1C(=O)N1CCOCC1 (stereo not given) | – | inconclusive: 1.03 µM [activator, full curve]
21 | CC(C)OC(=O)CC1C(=O)NCCN1C(=S)NC(=O)CCc1ccccc1 (stereo not given) | inconclusive: -28.3% | –
22 | Cc1cc2c(cc1C)/C(=C\C(N)=O)NC(C)(C)C2 | inconclusive: 55.5% | –
23 | CC(C)=NN/C(N)=N/C(=S)Nc1ccc(C)cc1 | inconclusive: 14.4% | –
24 | COC(=O)c1ccc(Sc2ccc(F)cc2)c(N)c1 | inconclusive: -1.19% | –
25 | CCCCOc1cccc(C(=O)NC(=S)Nc2ccc(Cl)c(C(=O)O)c2)c1 | inconclusive: -1.58% | –

Row | Structure (SMILES) | lipid storage change, negative = inhibition | Potency
26 | COC(=O)c1ccccc1NC(=O)Nc1ccc(Cl)cn1 | inconclusive: 116% | –
27 | COc1ccc2c(=O)c(-c3ccccc3C)c(C)oc2c1 | – | inconclusive: 14.6 µM [falling, single point]
28 | Clc1cccc2c1CCN(Cc1nc(-c3cnccn3)no1)C2 | inconclusive: -33.3% | –
29 | N#Cc1c(NC(=O)CSc2nc(-c3ccccc3)cc(C(F)(F)F)n2)sc2c1CCC2 | inconclusive: -5.99% | –
30 | CCCn1c(CN(C)Cc2ccccc2)nc2c1c(=O)n(C)c(=O)n2C | – | inconclusive: 20.6 µM [cytotoxic, single point]
31 | NS(=O)(=O)c1ccccc1 | inconclusive: -10.5% | –
32 | COc1cc(OC)cc(C(=O)N2CCC(n3c(C)nc4cc(F)ccc43)CC2)c1 | – | inconclusive: 0.92 µM [activator, full curve, poor fit]
33 | COc1ccc(-n2nc(C(=O)NCC(=O)Nc3cc(OC)ccc3OC)c3ccccc3c2=O)cc1 | inconclusive: -73.8% | –
34 | Cc1cc2c(c(=O)n1Cc1ccc3c(c1)OCO3)C(c1cccnc1)C(C#N)=C(N)O2 (stereo not given) | – | inconclusive: 0.13 µM [activator, full curve]
35 | Cc1ccc(SCCNC(=O)/C=C/c2ccc(Cl)cc2)cc1 | – | inconclusive: 29.1 µM [activator, single point]
36 | Cc1oc(-c2ccccc2F)nc1CS(=O)CC(=O)NCc1ccc2c(c1)OCO2 (stereo not given) | inconclusive: 80.7% | –
37 | CCOc1ccc(S(=O)(=O)NCCc2cn3ccccc3n2)cc1 | inactive: 13.3% | –
38 | Cc1ccc(NC(=S)N(CCN(C)C)Cc2cc3cc(C)cc(C)c3[nH]c2=O)cc1 | – | inconclusive: 10.3 µM [activator, partial curve]
39 | Cc1ccc(C(=O)Nc2ccc(S(=O)(=O)NC3=NCCCCC3)cc2)cc1S(=O)(=O)N1CCOCC1 | inconclusive: -73.2% | –
40 | Cc1ccccc1NC(=O)CN1C(=O)NC2(CCCCCCC2)C1=O | inconclusive | –
41 | CCC(C)C(NC(=O)OC(C)(C)C)C(=O)NC(Cc1ccccc1)C(=O)OC (stereo not drawn) (Boc-Ile-Phe-OMe; configuration not given here) | inconclusive: 18.9% | –
42 | CNC(=O)/C(=C\C=C\c1ccccc1)NC(=O)c1ccc([N+](=O)[O-])cc1 | inconclusive: 0.258% | –
43 | O=C(NCC(c1ccco1)N1CCCC1)c1cc2ccccc2s1 (stereo not given) | inconclusive: 18% | –
44 | Cc1ccc(C(=O)Nc2ccccc2C(=O)NCc2cccnc2)cc1 | – | inconclusive: 29.1 µM [falling, single point]
45 | Cc1ccccc1NC(=O)c1cc2c(=O)n3cccc(C)c3nc2s1 | – | inconclusive: 4.61 µM [falling, single point]
46 | N#Cc1ccc(NC(=S)NCCN2CCOCC2)cc1 | inconclusive: 0.989% | –
47 | Cc1ccc(OCc2nc(-c3ccccn3)n[nH]2)cc1 | – | inconclusive: 6.51 µM [falling, single point]
48 | O=S(=O)(CCSc1nc2ccccc2o1)Cc1ccccc1 | inconclusive: 1.59% | –
49 | Cc1nc2sc(C(c3cccc(F)c3)N3CCN(C(=O)c4ccco4)CC3)c(O)n2n1 (stereo not given) | inconclusive: 59.4% | –
50 | CCOc1cc(C(=O)NC(C)CC)cc(OCC)c1OCC (stereo not given) | inconclusive: 30% | –

14 of the compounds above, as a markdown table.

| Row | Structure (SMILES) | lipid storage change, negative = inhibition | Potency |
| --- | --- | --- | --- |
| 34 | Cc1cc2c(c(=O)n1Cc1ccc3c(c1)OCO3)C(c1cccnc1)C(C#N)=C(N)O2 (stereo not given) | – | inconclusive: 0.13 µM [activator, full curve] |
| 35 | Cc1ccc(SCCNC(=O)/C=C/c2ccc(Cl)cc2)cc1 | – | inconclusive: 29.1 µM [activator, single point] |
| 36 | Cc1oc(-c2ccccc2F)nc1CS(=O)CC(=O)NCc1ccc2c(c1)OCO2 (stereo not given) | inconclusive: 80.7% | – |
| 37 | CCOc1ccc(S(=O)(=O)NCCc2cn3ccccc3n2)cc1 | inactive: 13.3% | – |
| 38 | Cc1ccc(NC(=S)N(CCN(C)C)Cc2cc3cc(C)cc(C)c3[nH]c2=O)cc1 | – | inconclusive: 10.3 µM [activator, partial curve] |
| 39 | Cc1ccc(C(=O)Nc2ccc(S(=O)(=O)NC3=NCCCCC3)cc2)cc1S(=O)(=O)N1CCOCC1 | inconclusive: -73.2% | – |
| 40 | Cc1ccccc1NC(=O)CN1C(=O)NC2(CCCCCCC2)C1=O | inconclusive | – |
| 41 | CCC(C)C(NC(=O)OC(C)(C)C)C(=O)NC(Cc1ccccc1)C(=O)OC (stereo not drawn) (Boc-Ile-Phe-OMe; configuration not given here) | inconclusive: 18.9% | – |
| 42 | CNC(=O)/C(=C\C=C\c1ccccc1)NC(=O)c1ccc([N+](=O)[O-])cc1 | inconclusive: 0.258% | – |
| 43 | O=C(NCC(c1ccco1)N1CCCC1)c1cc2ccccc2s1 (stereo not given) | inconclusive: 18% | – |
| 44 | Cc1ccc(C(=O)Nc2ccccc2C(=O)NCc2cccnc2)cc1 | – | inconclusive: 29.1 µM [falling, single point] |
| 45 | Cc1ccccc1NC(=O)c1cc2c(=O)n3cccc(C)c3nc2s1 | – | inconclusive: 4.61 µM [falling, single point] |
| 46 | N#Cc1ccc(NC(=S)NCCN2CCOCC2)cc1 | inconclusive: 0.989% | – |
| 47 | Cc1ccc(OCc2nc(-c3ccccn3)n[nH]2)cc1 | – | inconclusive: 6.51 µM [falling, single point] |
